The supplement of paper PMC10849652
The other results are listed elsewhere or left out. Residues, ends and D or L forms follow the SMILES beside them. *: point of attachment. Cbz = O=C(OCc1ccccc1)*

Chains of the proteins cited; added tags and fusions are not shown. Lines headed by an entry give the natural chain unless they say otherwise; changes in a name come on top.
UniProt P40222: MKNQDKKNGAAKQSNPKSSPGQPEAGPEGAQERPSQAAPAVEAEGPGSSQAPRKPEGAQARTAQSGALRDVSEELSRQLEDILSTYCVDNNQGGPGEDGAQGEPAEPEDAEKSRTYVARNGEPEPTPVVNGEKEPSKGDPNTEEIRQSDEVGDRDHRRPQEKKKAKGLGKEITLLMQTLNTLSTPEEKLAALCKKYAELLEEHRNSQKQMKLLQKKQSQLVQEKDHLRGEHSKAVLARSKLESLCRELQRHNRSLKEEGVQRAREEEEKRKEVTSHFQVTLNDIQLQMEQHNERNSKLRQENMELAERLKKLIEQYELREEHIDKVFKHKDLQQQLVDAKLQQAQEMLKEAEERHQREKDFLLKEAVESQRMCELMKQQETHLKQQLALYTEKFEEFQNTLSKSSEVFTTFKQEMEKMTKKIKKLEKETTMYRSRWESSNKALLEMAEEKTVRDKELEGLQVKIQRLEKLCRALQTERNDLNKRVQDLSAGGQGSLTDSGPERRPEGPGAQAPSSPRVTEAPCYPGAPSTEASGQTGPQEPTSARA
UniProt Q9UJT0: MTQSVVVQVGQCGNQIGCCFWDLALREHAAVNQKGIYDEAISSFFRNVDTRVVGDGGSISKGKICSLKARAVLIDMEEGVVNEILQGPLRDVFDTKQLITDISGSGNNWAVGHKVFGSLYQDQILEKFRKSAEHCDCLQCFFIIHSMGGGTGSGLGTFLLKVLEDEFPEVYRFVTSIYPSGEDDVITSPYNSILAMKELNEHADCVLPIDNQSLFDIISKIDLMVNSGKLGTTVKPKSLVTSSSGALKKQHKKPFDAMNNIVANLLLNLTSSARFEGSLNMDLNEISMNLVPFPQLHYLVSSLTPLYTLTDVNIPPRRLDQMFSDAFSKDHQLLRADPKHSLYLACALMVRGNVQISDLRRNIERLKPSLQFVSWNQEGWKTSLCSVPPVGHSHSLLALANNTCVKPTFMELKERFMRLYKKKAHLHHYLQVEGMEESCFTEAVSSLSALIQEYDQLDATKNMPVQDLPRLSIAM
UniProt Q12792, whole entry, looked up: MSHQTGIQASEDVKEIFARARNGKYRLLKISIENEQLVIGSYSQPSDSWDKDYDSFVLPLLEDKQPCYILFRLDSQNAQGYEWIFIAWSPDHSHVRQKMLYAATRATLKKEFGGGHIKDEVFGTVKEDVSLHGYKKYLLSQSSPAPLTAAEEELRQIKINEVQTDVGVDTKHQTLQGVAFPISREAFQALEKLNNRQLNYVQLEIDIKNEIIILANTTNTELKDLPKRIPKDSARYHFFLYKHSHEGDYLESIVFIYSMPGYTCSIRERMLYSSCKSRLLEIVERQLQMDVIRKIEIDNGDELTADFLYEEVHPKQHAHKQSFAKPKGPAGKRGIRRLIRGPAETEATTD
UniProt Q14166: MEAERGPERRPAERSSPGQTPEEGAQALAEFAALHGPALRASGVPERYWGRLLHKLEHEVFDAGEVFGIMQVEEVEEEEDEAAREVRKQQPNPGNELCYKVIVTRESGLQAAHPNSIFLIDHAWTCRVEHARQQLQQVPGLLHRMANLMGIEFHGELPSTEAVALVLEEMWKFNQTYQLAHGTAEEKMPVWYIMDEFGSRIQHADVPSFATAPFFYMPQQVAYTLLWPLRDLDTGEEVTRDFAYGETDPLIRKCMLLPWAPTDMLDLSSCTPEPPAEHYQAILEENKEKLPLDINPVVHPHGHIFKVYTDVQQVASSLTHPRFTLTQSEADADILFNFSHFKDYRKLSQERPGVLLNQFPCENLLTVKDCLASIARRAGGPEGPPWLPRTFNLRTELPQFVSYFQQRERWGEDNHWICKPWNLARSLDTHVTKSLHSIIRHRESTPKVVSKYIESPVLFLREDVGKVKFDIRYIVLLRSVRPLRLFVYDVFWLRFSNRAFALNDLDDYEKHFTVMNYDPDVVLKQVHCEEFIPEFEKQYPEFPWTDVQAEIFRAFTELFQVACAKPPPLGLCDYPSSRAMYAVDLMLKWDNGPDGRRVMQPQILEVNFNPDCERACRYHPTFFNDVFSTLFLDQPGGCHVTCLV
UniProt Q9H832: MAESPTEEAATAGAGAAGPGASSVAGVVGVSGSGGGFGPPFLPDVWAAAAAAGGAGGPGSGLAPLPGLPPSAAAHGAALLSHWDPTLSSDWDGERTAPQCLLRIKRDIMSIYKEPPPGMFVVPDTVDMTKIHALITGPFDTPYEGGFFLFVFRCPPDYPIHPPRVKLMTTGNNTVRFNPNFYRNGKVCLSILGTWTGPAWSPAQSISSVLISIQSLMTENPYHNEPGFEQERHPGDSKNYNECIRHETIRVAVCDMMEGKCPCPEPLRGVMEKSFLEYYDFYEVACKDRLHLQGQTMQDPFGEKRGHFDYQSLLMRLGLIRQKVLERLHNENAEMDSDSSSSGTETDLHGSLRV
UniProt Q6IPR3: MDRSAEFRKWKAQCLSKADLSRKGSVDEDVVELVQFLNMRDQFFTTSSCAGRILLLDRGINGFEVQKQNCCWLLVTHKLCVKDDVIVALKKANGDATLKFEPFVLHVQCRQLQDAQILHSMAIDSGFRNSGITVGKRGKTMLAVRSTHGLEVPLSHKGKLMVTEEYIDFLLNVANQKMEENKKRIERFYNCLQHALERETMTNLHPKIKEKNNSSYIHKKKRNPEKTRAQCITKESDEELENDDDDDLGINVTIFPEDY
UniProt Q8NG68: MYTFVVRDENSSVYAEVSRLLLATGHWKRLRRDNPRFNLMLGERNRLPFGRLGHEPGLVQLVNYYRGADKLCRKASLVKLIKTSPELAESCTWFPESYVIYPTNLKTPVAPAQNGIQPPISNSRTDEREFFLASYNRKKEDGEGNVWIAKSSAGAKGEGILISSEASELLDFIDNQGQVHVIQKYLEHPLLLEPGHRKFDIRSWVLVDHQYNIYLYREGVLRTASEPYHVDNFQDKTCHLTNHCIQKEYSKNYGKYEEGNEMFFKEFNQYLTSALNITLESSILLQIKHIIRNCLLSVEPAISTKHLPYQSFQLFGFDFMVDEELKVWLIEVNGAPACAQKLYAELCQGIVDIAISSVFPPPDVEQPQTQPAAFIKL
UniProt P04350, whole entry, looked up: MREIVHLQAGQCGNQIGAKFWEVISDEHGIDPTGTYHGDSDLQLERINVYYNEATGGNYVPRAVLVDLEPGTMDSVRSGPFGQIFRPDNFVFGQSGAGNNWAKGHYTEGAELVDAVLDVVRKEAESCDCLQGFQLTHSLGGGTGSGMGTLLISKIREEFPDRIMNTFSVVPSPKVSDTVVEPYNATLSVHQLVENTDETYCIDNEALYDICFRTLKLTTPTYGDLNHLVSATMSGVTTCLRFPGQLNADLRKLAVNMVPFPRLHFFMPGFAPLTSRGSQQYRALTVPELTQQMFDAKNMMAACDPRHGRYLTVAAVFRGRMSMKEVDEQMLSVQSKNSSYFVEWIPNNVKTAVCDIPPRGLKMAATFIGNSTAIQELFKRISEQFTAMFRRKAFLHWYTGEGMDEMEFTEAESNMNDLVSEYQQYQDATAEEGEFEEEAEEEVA
UniProt Q96AE7: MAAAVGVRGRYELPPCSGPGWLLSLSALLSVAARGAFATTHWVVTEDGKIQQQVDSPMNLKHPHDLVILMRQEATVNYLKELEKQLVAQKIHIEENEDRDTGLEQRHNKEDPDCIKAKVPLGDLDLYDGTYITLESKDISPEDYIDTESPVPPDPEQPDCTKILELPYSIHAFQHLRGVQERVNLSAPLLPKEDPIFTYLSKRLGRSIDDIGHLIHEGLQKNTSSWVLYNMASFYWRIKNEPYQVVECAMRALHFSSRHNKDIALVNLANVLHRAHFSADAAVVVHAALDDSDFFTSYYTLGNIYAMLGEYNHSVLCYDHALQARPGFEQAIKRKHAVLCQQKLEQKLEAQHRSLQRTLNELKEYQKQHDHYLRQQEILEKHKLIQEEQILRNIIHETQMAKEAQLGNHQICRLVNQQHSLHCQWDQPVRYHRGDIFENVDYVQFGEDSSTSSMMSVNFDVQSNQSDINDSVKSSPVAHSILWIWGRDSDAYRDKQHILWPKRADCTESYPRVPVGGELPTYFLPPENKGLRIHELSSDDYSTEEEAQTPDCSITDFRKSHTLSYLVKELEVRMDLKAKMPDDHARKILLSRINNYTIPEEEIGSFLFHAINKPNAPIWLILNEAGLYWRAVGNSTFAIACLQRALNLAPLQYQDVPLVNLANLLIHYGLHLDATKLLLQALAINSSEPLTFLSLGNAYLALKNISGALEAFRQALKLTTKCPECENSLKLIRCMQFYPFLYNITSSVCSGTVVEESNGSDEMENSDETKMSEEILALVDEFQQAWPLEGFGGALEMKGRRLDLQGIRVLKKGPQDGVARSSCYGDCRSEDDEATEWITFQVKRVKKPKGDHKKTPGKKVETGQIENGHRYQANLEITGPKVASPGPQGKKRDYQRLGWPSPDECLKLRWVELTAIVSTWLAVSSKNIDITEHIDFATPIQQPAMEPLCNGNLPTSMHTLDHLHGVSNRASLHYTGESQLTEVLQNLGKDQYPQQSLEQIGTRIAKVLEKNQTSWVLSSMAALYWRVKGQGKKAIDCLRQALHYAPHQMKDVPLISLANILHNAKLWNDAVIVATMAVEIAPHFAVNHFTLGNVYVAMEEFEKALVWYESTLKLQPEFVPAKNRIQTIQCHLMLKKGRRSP
UniProt P61077: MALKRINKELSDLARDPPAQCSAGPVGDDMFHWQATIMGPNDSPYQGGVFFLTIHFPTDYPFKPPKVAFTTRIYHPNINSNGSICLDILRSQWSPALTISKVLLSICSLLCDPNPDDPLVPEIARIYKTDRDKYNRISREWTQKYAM
UniProt Q13630: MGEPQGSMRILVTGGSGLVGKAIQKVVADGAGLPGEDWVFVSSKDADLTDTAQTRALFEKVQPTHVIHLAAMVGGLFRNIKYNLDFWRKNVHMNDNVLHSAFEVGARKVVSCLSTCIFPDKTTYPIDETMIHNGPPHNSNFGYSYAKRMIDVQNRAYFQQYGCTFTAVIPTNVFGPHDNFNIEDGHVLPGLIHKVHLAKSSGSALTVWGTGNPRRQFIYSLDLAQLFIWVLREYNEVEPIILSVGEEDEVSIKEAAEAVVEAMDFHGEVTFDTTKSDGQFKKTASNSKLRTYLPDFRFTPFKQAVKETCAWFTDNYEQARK
UniProt Q969M7: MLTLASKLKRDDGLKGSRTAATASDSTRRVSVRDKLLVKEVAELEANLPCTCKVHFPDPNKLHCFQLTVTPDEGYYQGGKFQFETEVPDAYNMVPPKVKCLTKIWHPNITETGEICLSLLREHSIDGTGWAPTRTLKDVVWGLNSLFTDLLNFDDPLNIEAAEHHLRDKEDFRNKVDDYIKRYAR
UniProt Q15819: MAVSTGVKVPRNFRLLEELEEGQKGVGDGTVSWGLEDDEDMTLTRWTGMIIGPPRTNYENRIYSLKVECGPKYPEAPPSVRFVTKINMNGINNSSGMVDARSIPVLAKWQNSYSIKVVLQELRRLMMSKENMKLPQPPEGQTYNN
UniProt Q96J42: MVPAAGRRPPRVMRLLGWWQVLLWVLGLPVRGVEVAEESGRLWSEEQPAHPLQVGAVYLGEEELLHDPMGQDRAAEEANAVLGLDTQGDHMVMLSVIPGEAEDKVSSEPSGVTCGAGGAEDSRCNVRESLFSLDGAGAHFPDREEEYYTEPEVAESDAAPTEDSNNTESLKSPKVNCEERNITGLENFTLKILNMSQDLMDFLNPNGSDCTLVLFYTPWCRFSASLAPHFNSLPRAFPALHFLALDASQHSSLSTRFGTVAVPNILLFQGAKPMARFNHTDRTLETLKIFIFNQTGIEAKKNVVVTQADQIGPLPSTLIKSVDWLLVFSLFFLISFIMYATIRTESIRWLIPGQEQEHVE
UniProt Q712K3: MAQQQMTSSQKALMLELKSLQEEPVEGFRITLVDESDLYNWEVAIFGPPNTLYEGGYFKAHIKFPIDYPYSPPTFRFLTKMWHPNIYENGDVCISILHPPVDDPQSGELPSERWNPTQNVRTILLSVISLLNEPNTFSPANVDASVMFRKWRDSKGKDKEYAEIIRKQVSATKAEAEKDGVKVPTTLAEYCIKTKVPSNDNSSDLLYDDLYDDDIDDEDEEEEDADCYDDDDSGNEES
UniProt Q99614: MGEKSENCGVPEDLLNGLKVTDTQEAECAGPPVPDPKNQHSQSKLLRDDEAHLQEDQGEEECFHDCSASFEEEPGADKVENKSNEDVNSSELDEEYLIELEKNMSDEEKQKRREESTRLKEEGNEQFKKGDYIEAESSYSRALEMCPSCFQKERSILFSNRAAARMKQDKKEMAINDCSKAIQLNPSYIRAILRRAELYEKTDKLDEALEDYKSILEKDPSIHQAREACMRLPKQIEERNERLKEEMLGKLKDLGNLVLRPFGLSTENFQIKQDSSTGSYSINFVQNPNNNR

Legend:
Test in all cases: log2 fold change, soluble protein after heating vs DMSO (PISA); higher = thermal stabilisation; K562 cells, 10 uM, 30 min; active = over 0.2 and 3.5 SD of the protein, either way, in both replicates (recomputed)
[1] = compound: C1COCCN1CCN2C3=CC=CC=C3N=C2NC(=O)C4=CC(=CC=C4)[N+](=O)[O-] [IRAK-1-4 Inhibitor I]
Summary of the method: (§1)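 Values are thermal stability changes relative to control samples and are taken from duplicates. They are stated as log2 fold changes. Before quantification by TMTpro 16plex LC-MS/MS with equalised channel sums, K562 cells at 2×10^6 cells/mL were treated with 10 μM compound for 30 min, heated in aliquots for 3 min across 48°C-58°C, pooled, extracted in PBS with 0.5% NP-40 at 4°C, and centrifuged at 21,000xg for 90 min to give the soluble supernatant.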

[2] = compound: C=CC(=O)N1CCC[C@@H](n2nc(-c3ccc(Oc4ccccc4)cc3)c3c(N)ncnc32)C1 [ibrutinib]
Summary of the method: as §1

[3] = compound: CC(=O)c1cnc2ccc(-c3cc(Cl)c(O)c(Cl)c3)nc2c1N[C@H]1CC[C@H](CN(C)C)CC1
Summary of the method: as §1

[4] = compound: CC(C)(C)Cn1c(N)nc2ccc(-c3[nH]c(C(C)(C)C)nc3-c3ccc(F)cc3)nc21 [ralimetinib]
Summary of the method: as §1

[5] = compound: CC(C)(O)CC(=O)NCCn1ccc2ncnc(Nc3ccc(Oc4cccc(C(F)(F)F)c4)c(Cl)c3)c21
Summary of the method: as §1

[6] = compound: CC(C)C1=C2N=C(C=C(N2N=C1)NCC3=CC=CC=C3)NCCCCCCN
Summary of the method: as §1

[7] = compound: CC(C)C[C@@H](C=O)NC(=O)[C@H](CC(C)C)NC(=O)[C@H](CC(C)C)NC(=O)OCc1ccccc1
Summary of the method: as §1

[8] = compound: CC(C)N(C[C@H]1O[C@@H](n2cnc3c(N)ncnc32)[C@H](O)[C@@H]1O)[C@H]1C[C@@H](CCc2nc3cc(C(C)(C)C)ccc3[nH]2)C1 [pinometostat]
Summary of the method: as §1

[9] = compound: CC1=C(C(CC(=O)N1)C2=CC=C(C=C2)C(F)(F)F)C(=O)NC3=C(C=C4C(=C3)C=NN4)F
Summary of the method: as §1

[10] = compound: CC1=C(C2=C(C=C1)C(=O)C3=CC=CC=C3N2CCCN)C
Summary of the method: as §1

[11] = compound: CC1=C(C=C(C=C1)NC(=O)C2=CC(=CC=C2)C(C)(C)C#N)NC3=CC4=C(C=C3)N=CN(C4=O)C
Summary of the method: as §1

[12] = compound: CC1=C(C=C(C=C1)NC(=O)C2=CC(=CC=C2)N(C)C)NC(=O)C3=CC=C(C=C3)O
Summary of the method: as §1

[13] = compound: CC1=CC=C(C=C1)SC2=C3C=C(SC3=CN=C2)C(=O)N
Summary of the method: as §1

[14] = compound: CC1=NC(=CC=C1)C2=C(N=C(N2)C(C)(C)C)C3=CC4=NC=CN=C4C=C3
Summary of the method: as §1

[15] = compound: CCCCN(Cc1ccc(C(=O)NO)cc1)C(=O)Nc1ccccc1 [Nexturastat A]
Summary of the method: as §1

[16] = compound: CCCS(=O)(=O)Nc1ccc(F)c(C(=O)c2c[nH]c3ncc(-c4ccc(Cl)cc4)cc23)c1F [vemurafenib]
Summary of the method: as §1

[17] = compound: CCCS(=O)(=O)Nc1ccc(F)c(C(=O)c2c[nH]c3ncc(Cl)cc23)c1F
Summary of the method: as §1

[18] = compound: CCCc1cc(C)[nH]c(=O)c1CNC(=O)c1cc(-c2ccnc(N3CCN(C)CC3)c2)cc2c1cnn2C(C)C
Summary of the method: as §1

[19] = compound: CCN(CC)Cc1ccc2cc(COC(=O)Nc3ccc(C(=O)NO)cc3)ccc2c1 [givinostat]
Summary of the method: as §1

[20] = compound: CCN(CCCOc1ccc2c(Nc3cc(CC(=O)Nc4cccc(F)c4)[nH]n3)ncnc2c1)CCOP(=O)(O)O [barasertib]
Summary of the method: as §1

Measured: log2 fold change

TXLNA (UniProt P40222)
inactive: [1] -0.008 | [2] -0.014 | [3] 0.002 | [4] -0.027 | [5] -0.012 | [6] 0.077 | [7] 0.014 | [8] -0.051 | [9] -0.007 | [10] 0.052 | [11] 0.008 | [12] 0.004 | [13] -0.024 | [14] 0.03 | [15] -0.046 | [16] 0.022 | [17] -0.001 | [18] -0.032 | [19] -0.013 | [20] 0.006

TUBE1 (UniProt Q9UJT0)
inactive: [1] -0.006 | [2] 0.126 | [3] -0.045 | [4] -0.011 | [5] 0.002 | [6] 0.087 | [7] 0.021 | [8] 0.07 | [9] 0.012 | [10] -0.005 | [11] 0.007 | [12] 0.032 | [13] 0.004 | [14] -0.031 | [15] -0.139 | [16] 0.016 | [17] -0.011 | [18] -0.023 | [19] -0.009 | [20] -0.03

TWF1 (UniProt Q12792)
inactive: [1] -0.065 | [2] -0.055 | [3] 0.027 | [4] -0.019 | [5] -0.034 | [6] -0.012 | [7] -0.095 | [8] 0.002 | [9] -0.085 | [10] 0.042 | [11] 0.108 | [12] -0.045 | [13] 0.012 | [14] 0.051 | [15] -0.046 | [16] 0.021 | [17] 0.019 | [18] 0.041 | [19] -0.004 | [20] 0.03

TTLL12 (UniProt Q14166)
inactive: [1] -0.174 | [2] 0.135 | [3] -0.004 | [4] 0.26 | [5] 0 | [6] -0.392 | [7] 0.269 | [8] 0.565 | [9] 0.01 | [10] -0.031 | [11] 0.104 | [12] 0.042 | [13] -0.013 | [14] -0.062 | [15] 0.305 | [16] 0.087 | [17] -0.055 | [18] 0.193 | [19] 0.185 | [20] 0.041

UBE2Z (UniProt Q9H832)
inactive: [1] 0.058 | [2] 0 | [3] 0.016 | [4] -0.053 | [5] -0.028 | [6] 0.019 | [7] 0.053 | [8] -0.022 | [9] 0.01 | [10] -0.018 | [11] 0.003 | [12] 0.002 | [13] 0.001 | [14] -0.002 | [15] -0.05 | [16] 0.009 | [17] 0.052 | [18] -0.012 | [19] 0.024 | [20] 0.026

TYW3 (UniProt Q6IPR3)
inactive: [1] -0.004 | [2] -0.002 | [3] -0.047 | [4] -0.012 | [5] 0.057 | [6] 0.073 | [7] 0.036 | [8] 0.086 | [9] 0.094 | [10] 0.262 | [11] 0.013 | [12] 0.036 | [13] -0.008 | [14] 0.05 | [15] 0.244 | [16] -0.077 | [17] -0.015 | [18] 0.054 | [19] -0.024 | [20] 0.038

TTL (UniProt Q8NG68)
inactive: [1] 0.047 | [2] 0.063 | [3] -0.009 | [4] -0.071 | [5] 0.038 | [6] -0.019 | [7] 0.013 | [8] 0.014 | [9] -0.049 | [10] -0.021 | [11] -0.058 | [12] 0.043 | [13] 0.01 | [14] 0 | [15] -0.053 | [16] 0.023 | [17] 0.025 | [18] -0.093 | [19] -0.034 | [20] 0.01

TUBB4A (UniProt P04350)
inactive: [1] 0.062 | [2] 0.168 | [3] 0.009 | [4] 0.111 | [5] -0.066 | [6] 0.008 | [7] -0.074 | [8] -0.037 | [9] -0.017 | [10] 0.16 | [11] 0.035 | [12] -0.015 | [13] 0.046 | [14] 0.175 | [15] 0.056 | [16] 0.04 | [17] -0.059 | [18] 0.172 | [19] -0.041 | [20] -0.03

Looked up one by one from the entries so far (two):
TYW3 (UniProt Q6IPR3)
inactive: [1] -0.004 | [2] -0.002 | [3] -0.047 | [4] -0.012 | [5] 0.057 | [6] 0.073 | [7] 0.036 | [8] 0.086 | [9] 0.094 | [10] 0.262 | [11] 0.013 | [12] 0.036 | [13] -0.008 | [14] 0.05 | [15] 0.244 | [16] -0.077 | [17] -0.015 | [18] 0.054 | [19] -0.024 | [20] 0.038

TTLL12 (UniProt Q14166)
inactive: [1] -0.174 | [2] 0.135 | [3] -0.004 | [4] 0.26 | [5] 0 | [6] -0.392 | [7] 0.269 | [8] 0.565 | [9] 0.01 | [10] -0.031 | [11] 0.104 | [12] 0.042 | [13] -0.013 | [14] -0.062 | [15] 0.305 | [16] 0.087 | [17] -0.055 | [18] 0.193 | [19] 0.185 | [20] 0.041

Later entries.

TTC17 (UniProt Q96AE7)
inactive: [1] -0.005 | [2] -0.008 | [3] 0.092 | [4] -0.157 | [5] 0.161 | [6] 0.016 | [7] -0.061 | [8] -0.049 | [9] 0.053 | [10] -0.056 | [11] -0.013 | [12] -0.066 | [13] -0.002 | [14] -0.022 | [15] 0.017 | [16] 0.011 | [17] -0.047 | [18] -0.051 | [19] -0.009 | [20] 0.019

UBE2D3 isoform 3 (UniProt P61077)
inactive: [1] 0.093 | [2] -0.024 | [3] -0.01 | [4] 0.016 | [5] -0.027 | [6] -0.022 | [7] 0.083 | [8] 0.011 | [9] 0.007 | [10] -0.047 | [11] -0.016 | [12] -0.021 | [13] 0.007 | [14] -0.047 | [15] 0.046 | [16] 0.027 | [17] 0.045 | [18] -0.007 | [19] -0.007 | [20] -0.002

TSTA3 (UniProt Q13630)
inactive: [1] 0.008 | [2] 0.022 | [3] -0.01 | [4] -0.026 | [5] -0.044 | [6] 0.074 | [7] -0.006 | [8] -0.02 | [9] 0.039 | [10] 0.005 | [11] -0.026 | [12] 0.006 | [13] -0.037 | [14] 0 | [15] -0.072 | [16] -0.037 | [17] -0.054 | [18] -0.074 | [19] 0.016 | [20] 0.025

UBE2F isoform 2 (UniProt Q969M7)
inactive: [1] 0.045 | [2] 0.034 | [3] 0.054 | [4] 0.033 | [5] -0.056 | [6] -0.013 | [7] 0.04 | [8] -0.022 | [9] 0.014 | [10] 0.022 | [11] 0.031 | [12] -0.011 | [13] -0.041 | [14] 0.004 | [15] 0.001 | [16] 0 | [17] 0.005 | [18] 0.001 | [19] -0.026 | [20] -0.023

UBE2V2 (UniProt Q15819)
inactive: [1] 0.066 | [2] 0.022 | [3] -0.026 | [4] -0.064 | [5] -0.003 | [6] 0.032 | [7] 0.026 | [8] -0.044 | [9] 0.017 | [10] 0.03 | [11] 0 | [12] 0.007 | [13] 0.007 | [14] 0.028 | [15] -0.056 | [16] 0.033 | [17] 0.011 | [18] -0.022 | [19] 0.011 | [20] -0.006

TXNDC15 (UniProt Q96J42)
inactive: [1] 0.091 | [2] 0.039 | [3] 0.066 | [4] -0.024 | [5] 0.036 | [6] -0.021 | [7] 0.252 | [8] -0.109 | [9] 0.061 | [10] -0.009 | [11] 0.088 | [12] -0.097 | [13] -0.05 | [14] 0.039 | [15] -0.073 | [16] -0.01 | [17] -0.094 | [18] -0.204 | [19] 0.042 | [20] 0.043

UBE2R2 (UniProt Q712K3)
inactive: [1] 0.066 | [2] -0.011 | [3] -0.124 | [4] -0.01 | [5] 0.011 | [6] -0.067 | [7] -0.014 | [8] -0.026 | [9] 0.043 | [10] -0.052 | [11] -0.007 | [12] -0.026 | [13] 0.063 | [14] 0.041 | [15] -0.089 | [16] 0.115 | [17] 0.016 | [18] -0.018 | [19] -0.059 | [20] 0.067

TTC1 (UniProt Q99614)
inactive: [1] 0.057 | [2] 0.022 | [3] 0 | [4] -0.019 | [5] 0.046 | [6] 0.046 | [7] -0.002 | [8] -0.026 | [9] 0.012 | [10] -0.006 | [11] -0.047 | [12] 0.003 | [13] 0.004 | [14] 0.009 | [15] -0.052 | [16] -0.018 | [17] -0.033 | [18] -0.047 | [19] -0.081 | [20] -0.018
